# According to publication PMC12530543:
# The chains behind the UniProt entries cited, without tags or fusion partners. Where a name states a change or a piece, a line headed by the entry shows the natural chain unless it says otherwise.
# UniProt Q86VE9: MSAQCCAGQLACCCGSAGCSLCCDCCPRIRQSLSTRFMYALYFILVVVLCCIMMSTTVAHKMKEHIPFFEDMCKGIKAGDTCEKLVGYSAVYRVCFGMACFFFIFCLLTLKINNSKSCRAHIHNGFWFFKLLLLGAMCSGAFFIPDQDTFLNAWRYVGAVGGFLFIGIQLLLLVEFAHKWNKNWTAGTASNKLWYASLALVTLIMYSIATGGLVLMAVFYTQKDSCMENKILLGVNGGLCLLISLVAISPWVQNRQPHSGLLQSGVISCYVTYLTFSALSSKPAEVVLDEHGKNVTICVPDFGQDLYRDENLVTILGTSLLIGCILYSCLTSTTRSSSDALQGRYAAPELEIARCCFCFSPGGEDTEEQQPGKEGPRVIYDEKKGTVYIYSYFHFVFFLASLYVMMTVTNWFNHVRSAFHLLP
# UniProt P03407: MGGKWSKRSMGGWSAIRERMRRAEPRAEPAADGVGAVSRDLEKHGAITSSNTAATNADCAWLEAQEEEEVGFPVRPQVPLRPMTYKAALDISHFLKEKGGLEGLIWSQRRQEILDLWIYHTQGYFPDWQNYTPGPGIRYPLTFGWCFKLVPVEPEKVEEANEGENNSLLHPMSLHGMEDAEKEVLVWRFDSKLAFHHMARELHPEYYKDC
# Results are given in words; binding and its absence hold for the method and conditions named. Binding seen in cells or lysates may run through a third protein.
# Target: Ser5 K130R with a FLAG-tag (human) (UniProt Q86VE9)
# Experiment: co-IP; FLAG-tagged Ser5 K130R with Nef-HA or glycoMA-HA, or FLAG-tagged mSer5 / K131R with glycoGag-HA, co-expressed in HEK293T cells; pulled down by anti-FLAG, WB
substance,measurement,value
HIV-1 SF2 Nef with an HA-tag (from UniProt P03407 1-210),binding,no binding
